Data source: PubChem BioAssay AID686937 (Drosophila RNAi Screening Center, 2013)
In all, the deposit lists about 23,000 reagents; this is an unselected part of those that have a named target and a result. 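Reduced-secretion tags in replicate 1 do not always agree with the z-scores; no criterion for assigning the tags was given.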 Names joined by + are all predicted targets of the reagent. Further read-outs or replicates are left out here. Not given: the amount of reagent.

Test: 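Genes in the fly needed for secretion of protein constitutively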 (primary screen)
Cell system: Drosophila S2 cells expressing secreted horseradish peroxidase
Reagents: long dsRNA against Drosophila genes
Time to read-out: about 5.5 days (5 days dsRNA, then 12 h reporter induction)
Conditions: reporter expression induced after 5 days of dsRNA, read 12 h later; inducer not stated
Measurement: 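After 5 days of dsRNA and 12 h of reporter induction, medium peroxidase read by chemiluminescence and scored as per-plate z-score; higher values mean more reporter released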
Scale: z-score: higher = more reporter secreted into medium

target gene | DRSC id | z-score, replicate 1 | z-score, replicate 2 | z-score, replicate 3 | z-score, replicate 4
Cdc6 | DRSC10563 | -0.2 | -0.15 | – | –
tHMG2 | DRSC16182 | -0.01 | 0.15 | – | –
Cyp4e2 | DRSC07371 | 0.24 | 0.25 | – | –
alpha4GT2 | DRSC13732 | 0.51 | 0.63 | – | –
alpha4GT2 | DRSC15905 | 0.25 | 0.3 | – | –
CG6550 | DRSC07001 | 0.39 | 0.65 | – | –
Lmx1a | DRSC09726 | 0.23 | 0.42 | – | –
Lmx1a | DRSC10275 | -1.86 | -2.47 | – | –
Sou | DRSC04356 | 1.42 | 0.49 | – | –
Taf6 | DRSC11299 | 0.25 | -0.83 | – | –
AP-1mu | DRSC14089 | 0.43 | 0.42 | – | –
Cyp6u1 | DRSC05015 | 0.13 | 0.25 | – | –
CG5359 | DRSC15780 | 0.51 | 0.84 | – | –
SCCRO | DRSC10844 | -0.19 | -0.07 | – | –
RYa-R | DRSC16757 | 0.36 | 0.32 | – | –
Dyrk3 | DRSC21055 | 0.77 | 0.28 | – | –
CG32726 | DRSC17521 | 0.5 | 0.06 | – | –
zetaTry | DRSC07720 | -0.39 | -0.54 | – | –
Vang | DRSC07570 | 0.48 | 0.22 | – | –
MED23 + CG3700 | DRSC04406 | 0.14 | 0.17 | – | –
MED23 + CG3700 | DRSC04407 | 0.29 | 0.46 | – | –
Pak | DRSC12602 | 0.41 | 0.31 | – | –
disco-r | DRSC20173 | 0.03 | 0.43 | – | –
disco-r | DRSC20174 | 0.24 | 0.55 | – | –
CG14823 | DRSC10194 | -0.09 | -0.07 | – | –
CG15296 | DRSC17983 | 0.33 | 0.35 | – | –
Uba4 | DRSC02194 | 0.07 | 0.1 | – | –
CG17784 | DRSC15268 | 0.28 | 0.4 | – | –
Prosbeta1 | DRSC07159 | -5.97 | -5.38 | – | –
tay | DRSC20142 | 0.28 | 0.3 | – | –
CG12523 | DRSC09895 | 0.53 | 0.22 | 0.48 | 0.64
Fas3 | DRSC01638 | 0.33 | -0.09 | – | –
Fas3 | DRSC03326 | 0.76 | 0.62 | – | –
Fas3 | DRSC22776 | 0.09 | -0.28 | – | –
HINT1 | DRSC00548 | 0.26 | 0.31 | – | –
CG11406 | DRSC04010 | 0.21 | – | – | –
CG11406 | DRSC04108 | 0.71 | 0.45 | – | –
ITP | DRSC04222 | 0.36 | -0.05 | – | –
CG1835 | DRSC20560 | 0.21 | 0.32 | – | –
CG14341 | DRSC00371 | -0.07 | 0.39 | – | –
CG34302 | DRSC12751 | 0.28 | 0.02 | – | –
ubl | DRSC04998 | -0.2 | -0.06 | – | –
CG31088 | DRSC13123 | 0.42 | 0.05 | – | –
CG31418 | DRSC21780 | -0.67 | -0.55 | – | –
Lrr47 | DRSC03365 | -0.61 | 0.31 | – | –
CG3339 | DRSC13821 | 0.12 | 0.29 | – | –
CG3339 | DRSC15479 | 0.28 | 0.33 | – | –
jeb | DRSC06305 | 0.2 | 0.5 | – | –
jeb | DRSC06307 | 0.34 | 0.46 | – | –
janB | DRSC16973 | 0.2 | 0.33 | – | –
CG12054 | DRSC14467 | -2.32 | -1.14 | – | –
CG11373 | DRSC12170 | 0.34 | 0.56 | – | –
asRNA:CR43470 + CG14830 | DRSC10200 | 0.05 | 0.24 | – | –
Phlpp | DRSC02065 | 0.06 | 0.26 | – | –
Phlpp | DRSC22808 | 0.01 | -0.56 | – | –
Naa40 | DRSC16265 | 0.24 | 0.39 | – | –

An excerpt from the list above:
target gene | DRSC id | z-score, replicate 1 | z-score, replicate 2 | z-score, replicate 3 | z-score, replicate 4
disco-r | DRSC20174 | 0.24 | 0.55 | – | –
CG14823 | DRSC10194 | -0.09 | -0.07 | – | –
CG15296 | DRSC17983 | 0.33 | 0.35 | – | –
Uba4 | DRSC02194 | 0.07 | 0.1 | – | –
CG17784 | DRSC15268 | 0.28 | 0.4 | – | –
Prosbeta1 | DRSC07159 | -5.97 | -5.38 | – | –
tay | DRSC20142 | 0.28 | 0.3 | – | –
CG12523 | DRSC09895 | 0.53 | 0.22 | 0.48 | 0.64
